Out of some 330,000 compounds screened, about 7,700 (2.3%) were called active. The shares of active, inactive and inconclusive entries below differ from those in the screen. The call rests on the fitted dose curve; in most records, active means well fitted inhibition curve with a large enough effect; inconclusive means small, poorly fitted or top-dose-only effect, or effect the other way; inactive means flat fitted curve, though single readings scatter. A potency beside an inconclusive call is a rough fit, not a confirmed value.
Experiment: qHTS screen for small molecules that inhibit ELG1-dependent DNA repair in human embryonic kidney (HEK293T) cells expressing luciferase-tagged ELG1; further: nearly all actives have a fitted effect of over 55% in size
Conditions: HEK293T ELG1-luciferase reporter, luminescence, 16 h, DNA damage induced by 5-fluorouridine; activity change, negative = inhibition: at 46.1 µM (top of the series)
Procedure, shortened: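 Luminescence from the luciferase reporter, measured 30 min after ONE-Glo reagent at room temperature, was the read-out. Beforehand, 2,000 cells per well were exposed for 16 hr at 37 °C to 5-fluorouridine together with compound or vehicle.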
On the % scale 0 is the no-effect control and ±100 the full control effect; potency means the concentration at half of the fitted maximal effect.

| SMILES | Potency | activity change, negative = inhibition |
| --- | --- | --- |
| C=CCc1ccc(OC)c(OC)c1 | inconclusive: 25.9 µM [activator, single point] |  |
| CC(C)N(C(=O)[C@H]1C[C@H](CC(=O)NCc2cccc(C(F)(F)F)c2)C(=O)N2CCc3c([nH]c4cc(CCC(=O)N(C)C)ccc34)[C@]12C)C(C)C |  | inactive: -22.6% |
| COc1ccc(-c2cncnc2-c2ccc(OC)cc2O)cc1 | active: 5.8 µM |  |
| O=C(N/N=C/c1ccco1)c1cc([N+](=O)[O-])cc([N+](=O)[O-])c1 |  | inactive: 0.586% |
| CN(C)N=Nc1ccc(-c2cn(Cc3ccccc3)cn2)cc1 | inconclusive: 18.3 µM [activator, partial curve] |  |
| Cc1ccc(NC(=O)C2CCCN(C(=O)c3ccc(Cl)cc3)C2)cc1C (stereo not given) |  | inactive: 1.9% |
| CC(C)[C@@H](C(=O)NC1CCN(Cc2ccccc2)CC1)N1C(=O)N2CCc3c([nH]c4ccccc34)[C@@]2(C)C1=O |  | inactive: -31.7% |
| CC1CCC/C(=N\NC(=S)Nc2ccccc2)C1 (stereo not given) | inconclusive: 18.4 µM [activator, single point] |  |
| CC(=O)Nc1cccc(-c2nc3ccccc3s2)c1C | inconclusive: 5.8 µM [activator, full curve, poor fit] |  |
| Oc1ccccc1-c1cc(-c2ccco2)[nH]n1 | inconclusive: 23.1 µM [activator, partial curve] |  |
| COc1ccc(C(=O)Nc2ccc(C)cc2C(=O)c2ccccc2)c(OC)c1 | inconclusive: 23.1 µM [inhibitor, single point] |  |
| CCCCc1ccc(NC(=O)C(C)CC)cc1 (stereo not given) | inconclusive: 20.6 µM [activator, single point] |  |
| COc1cccc(C(=O)Nc2nc3ccccc3s2)c1 | inconclusive: 0.73 µM [activator, partial curve] |  |
| C/C(CC(=O)Nc1ccccc1-c1ccccc1)=N\NC(=O)COc1ccc(C)cc1Br |  | inactive: 0% |
| Cc1ccc(C(=O)NC(C)CCc2ccccc2)cc1[N+](=O)[O-] (stereo not given) | inconclusive: 29.1 µM [inhibitor, single point] |  |
| CCOc1ccc(C(=O)O/N=C(\N)c2ccccn2)cc1OCC | inconclusive: 7.3 µM [activator, partial curve] |  |
| Cc1ccc(C(=O)c2oc3ccccc3c2NC(=O)c2cc(-c3cc(C)ccc3O)n[nH]2)cc1 | inconclusive: 29.1 µM [activator, single point] |  |
| C/C(=N\Nc1ncc(Cl)cc1Cl)c1cccs1 | inconclusive: 8.2 µM [activator, partial curve] |  |
| COCCNC(=O)c1ccc(-n2c(SCc3cc(F)ccc3F)nc3ccccc3c2=O)cc1 |  | inactive: 21.7% |
| CCOC(=O)/C=c1\s/c(=C(\C#N)C(=O)NC)n(-c2ccccc2)c1=O |  | inactive: 23.2% |
| COC(=O)Cc1csc(Nc2ccc(F)c(Cl)c2)n1 |  | inactive: -16.3% |
| COc1ccc(CNCc2cccc(Cl)c2)cc1 | inconclusive: 16.4 µM [activator, partial curve, poor fit] |  |
| NS(=O)(=O)c1ccc(O)c(NC(=O)c2ccc([N+](=O)[O-])o2)c1 | inconclusive: 20.6 µM [inhibitor, single point] |  |

| SMILES | Potency | activity change, negative = inhibition |
| --- | --- | --- |
| CN(C)S(=O)(=O)c1ccc(NC(=O)C2CCCN(C(=O)c3ccc(Cl)cc3)C2)cc1 (stereo not given) |  | inactive: -3.27% |
| Cc1cc(NC(=O)C(C)Sc2nc(-c3cccs3)nc3ccccc23)no1 (stereo not given) |  | inactive: -15.2% |
| COC(=O)Cn1cnc2c(nnn2-c2ccc(C)cc2)c1=O | inconclusive: 11.6 µM [activator, partial curve, poor fit] |  |
| Cc1cccc(NS(=O)(=O)c2cccc(C(=O)N3CCN(S(=O)(=O)c4ccccc4)CC3)c2)c1 |  | inactive: -14.8% |
| CS(=O)(=O)c1cccc(C(=O)Nc2ccc3c(c2)OCCCO3)c1 | inconclusive: 14.6 µM [activator, partial curve] |  |
| CCCCNC(=S)N(C)/N=C/c1ccccc1F |  | inactive: 6.54% |
| COc1ccccc1-c1cn(S(=O)(=O)c2ccc(F)cc2)nc1N | inconclusive: 25.9 µM [inhibitor, single point] |  |
| O=C(Cn1cc(/C=N/NC(=O)c2cccc(C(F)(F)F)c2)c2ccccc21)Nc1ccc(F)cc1 | inconclusive: 20.6 µM [inhibitor, single point] |  |
| Cc1nn(C)cc1S(=O)(=O)N1CCCC(C(=O)O)C1 (stereo not given) | inconclusive: 29.1 µM [inhibitor, single point] |  |
| CCOCCCNC(=O)c1cccc(OC2CCN(S(C)(=O)=O)CC2)c1 | inconclusive: 18.3 µM [activator, partial curve, poor fit] |  |
| COCCCn1cnc2oc3nc4ccccc4nc3c2c1=O | inconclusive: 1.84 µM [activator, full curve] |  |
| COCCn1c(SCC(=O)Nc2cccc(F)c2)nc2c([nH]c3ccccc32)c1=O |  | inactive: 13.3% |
| COc1ccc(NC(=O)N2CCc3cc(OC)c(OC)cc3C2)cc1 | inconclusive: 29.1 µM [inhibitor, single point] |  |
| COCCCNC(=O)c1cc2c(-c3cccc(OC)c3)nn(C)c2s1 | active: 11.6 µM |  |
| CCCn1cnc2sc(CC)cc2c1=O | inconclusive: 20.6 µM [activator, partial curve, poor fit] |  |
| COc1ccccc1/C=N\Nc1cc(C)nc(-n2nc(C)cc2C)n1 | active: 23.1 µM |  |
| Cc1nnc(SCC(=O)Nc2nsc(-c3ccc(C(C)(C)C)cc3)n2)s1 | inconclusive: 2.31 µM [activator, full curve] |  |
| Cc1ccc2nc(SCC(=O)Nc3cc([N+](=O)[O-])ccc3F)[nH]c2c1 | inconclusive: 29.1 µM [inhibitor, single point] |  |
| Cc1ccc(C)c(Cc2c(C)nc3c(C(=O)NCc4ccc5c(c4)OCO5)cnn3c2C)c1 | inconclusive: 23.1 µM [inhibitor, single point] |  |
| O=c1c2ccccc2oc2nc(-c3ccco3)n(-c3ccccc3)c(=O)c12 | inconclusive: 2.59 µM [activator, partial curve, poor fit] |  |
| CCCCNC(=O)/C(=C\c1ccc([N+](=O)[O-])o1)NC(=O)c1ccccc1 | inconclusive: 29.1 µM [inhibitor, single point] |  |
| COc1ccc2c(c1)c1ncnc(N3CCN(Cc4ccc5c(c4)OCO5)CC3)c1n2C | active: 16.4 µM |  |

3 entries drawn at random from the list so far:

| SMILES | Potency | activity change, negative = inhibition |
| --- | --- | --- |
| CCCCNC(=O)/C(=C\c1ccc([N+](=O)[O-])o1)NC(=O)c1ccccc1 | inconclusive: 29.1 µM [inhibitor, single point] |  |
| CC(=O)Nc1cccc(-c2nc3ccccc3s2)c1C | inconclusive: 5.8 µM [activator, full curve, poor fit] |  |
| Cc1ccc(NC(=O)C2CCCN(C(=O)c3ccc(Cl)cc3)C2)cc1C (stereo not given) |  | inactive: 1.9% |
